We go through three substances from article doi:10.1101/2024.11.01.621520.

Sequences of proteins named here, by UniProt entry; tags and fusion partners are left off. Residues count along the entry.
UniProt P10275: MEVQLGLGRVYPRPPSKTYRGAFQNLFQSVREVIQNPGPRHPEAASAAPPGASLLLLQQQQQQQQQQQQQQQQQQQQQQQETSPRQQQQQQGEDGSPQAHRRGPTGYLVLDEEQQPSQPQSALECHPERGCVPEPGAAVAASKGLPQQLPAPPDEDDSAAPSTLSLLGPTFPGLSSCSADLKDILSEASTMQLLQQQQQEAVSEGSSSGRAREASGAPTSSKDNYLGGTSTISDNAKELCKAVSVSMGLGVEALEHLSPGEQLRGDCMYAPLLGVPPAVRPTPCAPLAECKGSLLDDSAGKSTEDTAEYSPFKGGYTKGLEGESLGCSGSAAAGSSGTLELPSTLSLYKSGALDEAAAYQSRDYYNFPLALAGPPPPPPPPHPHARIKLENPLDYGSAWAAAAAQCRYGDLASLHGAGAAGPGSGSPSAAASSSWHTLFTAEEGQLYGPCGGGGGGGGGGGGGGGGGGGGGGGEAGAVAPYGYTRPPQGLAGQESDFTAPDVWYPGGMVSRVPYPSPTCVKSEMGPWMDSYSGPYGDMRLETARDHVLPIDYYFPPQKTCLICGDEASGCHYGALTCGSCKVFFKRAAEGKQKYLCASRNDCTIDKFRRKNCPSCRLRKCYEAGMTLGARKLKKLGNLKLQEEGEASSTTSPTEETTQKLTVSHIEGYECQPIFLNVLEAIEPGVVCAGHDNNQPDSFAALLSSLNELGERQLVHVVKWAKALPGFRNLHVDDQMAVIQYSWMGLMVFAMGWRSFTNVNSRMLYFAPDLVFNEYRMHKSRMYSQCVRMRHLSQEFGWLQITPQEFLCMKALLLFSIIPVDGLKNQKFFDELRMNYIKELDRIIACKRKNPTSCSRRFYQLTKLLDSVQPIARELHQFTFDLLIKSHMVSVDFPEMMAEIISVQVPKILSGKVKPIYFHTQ
UniProt Q13283: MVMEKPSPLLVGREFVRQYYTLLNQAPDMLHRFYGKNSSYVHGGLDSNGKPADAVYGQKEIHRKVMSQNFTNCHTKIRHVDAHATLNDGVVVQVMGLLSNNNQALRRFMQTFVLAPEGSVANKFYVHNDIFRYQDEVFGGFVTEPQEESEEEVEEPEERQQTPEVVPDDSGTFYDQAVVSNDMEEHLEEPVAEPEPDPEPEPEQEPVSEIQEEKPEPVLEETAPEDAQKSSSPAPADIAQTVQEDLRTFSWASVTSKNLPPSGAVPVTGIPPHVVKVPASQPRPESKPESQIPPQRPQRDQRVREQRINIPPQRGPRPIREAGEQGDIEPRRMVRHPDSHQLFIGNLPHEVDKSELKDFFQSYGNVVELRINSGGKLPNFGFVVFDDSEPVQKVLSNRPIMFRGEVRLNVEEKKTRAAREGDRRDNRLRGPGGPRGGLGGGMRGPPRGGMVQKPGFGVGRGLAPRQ
UniProt P24593, residues 21-272: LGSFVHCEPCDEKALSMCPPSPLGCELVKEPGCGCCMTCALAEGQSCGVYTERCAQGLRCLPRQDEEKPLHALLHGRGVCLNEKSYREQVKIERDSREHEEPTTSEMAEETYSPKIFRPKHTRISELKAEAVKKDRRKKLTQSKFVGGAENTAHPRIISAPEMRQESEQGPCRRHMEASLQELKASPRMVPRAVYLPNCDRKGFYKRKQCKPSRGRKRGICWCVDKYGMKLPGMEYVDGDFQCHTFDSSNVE

No constants are given. Whether binding was seen depends on the method and setting. Binding seen in cells or lysates may run through a third protein. Some entries that bind do so weakly or less than the wild type.

The target in assay [1] is androgen receptor (human (endogenous in MCF7Aro-LetR and MCF7)) (UniProt P10275). In words: co-IP.
Assay [2] deals with G3BP1 (human (endogenous in MCF7Aro-LetR and MCF7)) (UniProt Q13283). The assay is described as follows: co-IP.

Take G3BP1 (from UniProt Q13283 1-466): the binding result in assay [1] was “binds”.

With “Insulin-like growth factor-binding protein 5 (from UniProt P24593 21-272)”, the binding entry in assay [1] is listed as “binds”.

Regarding “androgen receptor (from UniProt P10275 1-920)”, the binding entry in assay [2] was “binds”.
